± gives the standard deviation of the averaged measurements. Most entries show no effect beyond the scatter of the controls.
Experiments:
Assay in all cases: level (log10 ratio to DMSO vehicle control); higher = higher biomarker level / cell amount than vehicle control
[1] = compound: OCC(F)(F)C(F)(F)C(F)(F)C(F)(F)C(F)(F)C(F)(F)F [6:1 Fluorotelomer alcohol] (in DMSO); conditions: 2200 nM
Method: (§1)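 BioMAP Diversity Plus panel of 12 human primary cell co-culture systems (3C, 4H, LPS, SAg, BT, BF4T, BE3C, CASM3C, HDF3CGF, KF3CT, MyoF, Mphg). Compounds were added 1 h before stimulation and left for 24 h (MyoF 48 h; BT 72 h for soluble read-outs or 6 d for IgG). Biomarkers were read by ELISA, cytotoxicity by SRB, PBMC viability and proliferation by Alamar Blue. Each well value was divided by the mean of 8 DMSO control wells on the same plate and log10 transformed; duplicate blinded samples were tested at 4 concentrations.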

[2] = compound: O=C(O)C(F)(OC(F)(F)C(F)(F)C(F)(F)F)C(F)(F)F [Ammonium perfluoro-2-methyl-3-oxahexanoate] (in Water)
Method: as §1

[3] = compound: O=C(O)CCC(F)(F)C(F)(F)C(F)(F)F [3:3 Fluorotelomer carboxylic acid] (in DMSO); conditions: 2200 nM
Method: as §1

[4] = compound: OCCCC(F)(F)C(F)(F)C(F)(F)C(F)(F)C(F)(F)C(F)(F)C(F)(F)C(F)(F)F [3-(Perfluorooctyl)propanol] (in DMSO); conditions: 2200 nM
Method: as §1

[5] = compound: O=C(O)C(F)(F)C(F)(F)C(F)(F)OC(F)(C(F)(F)F)C(F)(F)F [Perfluoro-4-isopropoxybutanoic acid] (in DMSO); conditions: 2200 nM
Method: as §1

[6] = compound: FC(F)(F)C(F)(F)C(F)(F)C(F)(F)CCI [1H,1H,2H,2H-Perfluorohexyl iodide] (in DMSO); conditions: 2200 nM
Method: as §1

Hexafluoroglutaric acid = compound: O=C(O)C(F)(F)C(F)(F)C(F)(F)C(=O)O [Hexafluoroglutaric acid] (in DMSO)
Method: as §1

[7] = compound: O=C(O)C(F)(OC(F)(F)C(F)(OC(F)(F)C(F)(OC(F)(F)C(F)(F)C(F)(F)F)C(F)(F)F)C(F)(F)F)C(F)(F)F [Perfluoro-(2,5,8-trimethyl-3,6,9-trioxadodecanoic)acid] (in DMSO); conditions: 370 nM
Method: as §1

[8] = compound: FC(F)(F)C(F)(F)CNCC(F)(F)C(F)(F)F [Bis(1H,1H-perfluoropropyl)amine] (in DMSO); conditions: 2200 nM
Method: as §1

[9] = compound: OCC(F)(F)C(F)(F)C(F)(F)C(F)F [1H,1H,5H-Perfluoropentanol] (in DMSO); conditions: 2200 nM
Method: as §1

[10] = compound: O=S(=O)(O)C(F)(F)C(F)(F)C(F)(F)C(F)(F)F [Perfluorobutanesulfonic acid] (in DMSO)
Method: as §1

[11] = compound: OCC(F)(F)OC(F)(F)C(F)(F)OC(F)(F)CO [1H,1H,8H,8H-Perfluoro-3,6-dioxaoctane-1,8-diol] (in DMSO); conditions: 2200 nM
Method: as §1

Perfluorohexanoic acid = compound: O=C(O)C(F)(F)C(F)(F)C(F)(F)C(F)(F)C(F)(F)F [Perfluorohexanoic acid] (in DMSO)
Method: as §1

[12] = compound: C=C(C)C(=O)OCCC(F)(F)C(F)(F)C(F)(F)C(F)(F)C(F)(F)C(F)(F)F [6:2 Fluorotelomer methacrylate] (in DMSO); conditions: 2200 nM
Method: as §1

[13] = compound: CNS(=O)(=O)C(F)(F)C(F)(F)C(F)(F)C(F)(F)C(F)(F)C(F)(F)C(F)(F)C(F)(F)F [N-Methylperfluorooctanesulfonamide] (in DMSO); conditions: 2200 nM
Method: as §1

[14] = compound: OCC(F)(F)C(F)(F)C(F)(F)C(F)(F)C(F)(F)C(F)(F)CO [1H,1H,8H,8H-Perfluorooctane-1,8-diol] (in DMSO); conditions: 2200 nM
Method: as §1

[15] = compound: FC(F)(F)COC(OCC(F)(F)F)OCC(F)(F)F [tris(Trifluoroethoxy)methane] (in DMSO); conditions: 2200 nM
Method: as §1

Row | Test System | level (log10) [1] | level (log10) ([2]; 2200 nM) | level (log10) ([2]; 6700 nM) | level (log10) ([2]; 20000 nM) | level (log10) ([2]; 60000 nM) | level (log10) [3] | level (log10) [4] | level (log10) [5] | level (log10) [6] | level (log10) (Hexafluoroglutaric acid; 2200 nM) | level (log10) (Hexafluoroglutaric acid; 6700 nM) | level (log10) (Hexafluoroglutaric acid; 20000 nM) | level (log10) (Hexafluoroglutaric acid; 60000 nM) | level (log10) [7] | level (log10) [8] | level (log10) [9] | level (log10) ([10]; 2200 nM) | level (log10) ([10]; 6700 nM) | level (log10) ([10]; 20000 nM) | level (log10) ([10]; 60000 nM) | level (log10) [11] | level (log10) (Perfluorohexanoic acid; 2200 nM) | level (log10) (Perfluorohexanoic acid; 6700 nM) | level (log10) (Perfluorohexanoic acid; 20000 nM) | level (log10) (Perfluorohexanoic acid; 60000 nM) | level (log10) [12] | level (log10) [13] | level (log10) [14] | level (log10) [15]
1 | BE3C:MMP-9 | 0.0205 ± 0.03 | -0.106 ± 0.054 | -0.109 ± 0.051 | -0.09 ± 0.03 | -0.063 ± 0.035 | 0.0175 ± 0.03 | 0.015 ± 0.014 | 0.04 ± 0.023 | 0.019 ± 0.011 | -0.0025 ± 0.018 | -0.0035 ± 0.023 | -0.0025 ± 0.032 | 0.0145 ± 0.042 | 0.0055 ± 0.011 | 0 ± 0.038 | -0.001 ± 0.028 | -0.033 ± 0.021 | -0.0125 ± 0.016 | -0.0205 ± 0.0035 | -0.0315 ± 0.0092 | -0.0035 ± 0.011 | -0.023 ± 0.021 | -0.0155 ± 0.018 | -0.005 ± 0.0071 | 0.0145 ± 0.013 | -0.0055 ± 0.015 | -0.047 ± 0.048 | -0.0185 ± 0.00071 | 0.002 ± 0.0085
2 | BE3C:PAI-I | -0.0635 ± 0.053 | -0.128 ± 0.082 | -0.0995 ± 0.057 | -0.092 ± 0.044 | -0.124 ± 0.012 | 0.0035 ± 0.037 | -0.016 | 0.002 ± 0.0085 | -0.043 ± 0.034 | -0.01 ± 0.0071 | -0.0205 ± 0.016 | -0.014 ± 0.027 | 0.002 ± 0.03 | -0.0405 ± 0.028 | -0.012 ± 0.044 | -0.001 ± 0.0085 | 0.0055 ± 0.0092 | -0.0015 ± 0.0035 | -0.006 ± 0.013 | 0.008 ± 0.013 | -0.0035 ± 0.011 | 0.008 ± 0.0028 | -0.019 ± 0.018 | -0.029 ± 0.011 | 0.0065 ± 0.022 | -0.04 ± 0.048 | -0.088 ± 0.02 | 0.023 ± 0.021 | 0.0035 ± 0.03
3 | BE3C:SRB | -0.004 | 0 ± 0.013 | -0.003 ± 0.0042 | 0 ± 0.0014 | 0.003 ± 0.0099 | 0.005 ± 0.023 | 0.0005 ± 0.00071 | 0.006 ± 0.0071 | 0.0015 ± 0.013 | 0.0135 ± 0.019 | 0.0035 ± 0.0035 | -0.005 | 0.0125 ± 0.012 | -0.0025 ± 0.005 | 0.007 ± 0.02 | -0.003 ± 0.0028 | -0.0005 ± 0.0064 | 0.001 | -0.004 ± 0.0028 | -0.003 ± 0.0014 | 0.012 ± 0.017 | -0.01 ± 0.0085 | -0.001 | -0.006 ± 0.0014 | 0.009 ± 0.018 | 0.0015 ± 0.0092 | 0.0035 ± 0.018 | 0.0015 ± 0.0035 | -0.006 ± 0.0028
4 | BE3C:tPA | -0.011 ± 0.0042 | -0.053 ± 0.034 | -0.101 ± 0.047 | -0.0935 ± 0.021 | -0.0945 ± 0.021 | -0.0125 ± 0.022 | 0.0155 ± 0.011 | -0.006 ± 0.017 | 0.0135 ± 0.011 | -0.01 ± 0.02 | -0.008 ± 0.0014 | -0.0465 ± 0.005 | -0.0085 ± 0.022 | -0.013 ± 0.023 | 0.002 ± 0.051 | 0.0025 ± 0.015 | -0.01 ± 0.014 | 0.0155 ± 0.022 | -0.0135 ± 0.0078 | 0 ± 0.025 | -0.011 ± 0.011 | -0.0235 ± 0.067 | -0.032 ± 0.054 | -0.0405 ± 0.016 | -0.046 ± 0.018 | -0.0395 ± 0.015 | 0.186 ± 0.035 | 0.0125 ± 0.0064 | -0.0225 ± 0.028
5 | BE3C:uPA | -0.0095 ± 0.022 | 0.0405 ± 0.0078 | 0.033 ± 0.027 | 0.0315 ± 0.016 | 0.0245 ± 0.012 | -0.0005 ± 0.043 | 0.0005 ± 0.0078 | -0.0025 ± 0.012 | 0.005 ± 0.0057 | -0.0035 ± 0.025 | -0.01 ± 0.0085 | -0.017 ± 0.0042 | -0.0075 ± 0.011 | 0.0115 ± 0.013 | -0.001 ± 0.025 | -0.0015 ± 0.026 | -0.009 ± 0.0085 | -0.0035 ± 0.0021 | -0.007 ± 0.0042 | -0.005 ± 0.0099 | 0.0135 ± 0.018 | -0.0195 ± 0.029 | -0.03 ± 0.013 | -0.01 ± 0.018 | 0.0025 ± 0.016 | 0.005 ± 0.0085 | 0.008 ± 0.014 | -0.0075 ± 0.0064 | 0.0045 ± 0.012
6 | BF4T:CCL2/MCP-1 | 0.001 ± 0.0028 | -0.0025 ± 0.005 | 0.007 ± 0.031 | 0.005 ± 0.048 | 0.0285 ± 0.021 | 0.019 ± 0.051 | 0.001 ± 0.014 | 0.022 ± 0.0014 | 0.0665 ± 0.016 | 0.0345 ± 0.1 | 0.0015 ± 0.043 | -0.0225 ± 0.005 | 0.0085 ± 0.032 | 0.0175 ± 0.073 | 0.0155 ± 0.00071 | 0.0165 ± 0.03 | 0.0045 ± 0.022 | 0.028 ± 0.0014 | 0.026 ± 0.024 | 0.033 ± 0.018 | 0.0455 ± 0.021 | -0.007 ± 0.04 | -0.0045 ± 0.0021 | -0.012 ± 0.024 | -0.0015 ± 0.052 | 0.0125 ± 0.033 | 0.032 ± 0.021 | 0.0135 ± 0.0064 | 0.0205 ± 0.063
7 | BF4T:CCL26/Eotaxin-3 | 0.0465 ± 0.042 | -0.0895 ± 0.042 | -0.128 ± 0.03 | -0.0995 ± 0.06 | -0.137 ± 0.03 | 0.0125 ± 0.043 | -0.015 ± 0.041 | 0.027 ± 0.1 | 0.003 ± 0.018 | 0.022 ± 0.083 | 0.016 ± 0.054 | 0.0055 ± 0.042 | 0.043 ± 0.011 | 0.002 ± 0.0099 | 0.0165 ± 0.088 | -0.004 ± 0.0071 | -0.028 ± 0.072 | -0.057 ± 0.09 | -0.014 ± 0.035 | -0.003 ± 0.047 | 0.0565 ± 0.03 | 0.024 ± 0.0014 | 0.0135 ± 0.015 | 0.005 ± 0.024 | 0.0115 ± 0.011 | 0.022 ± 0.035 | -0.108 ± 0.14 | 0.0135 ± 0.022 | 0.018 ± 0.035
